# Several values for one entry are separate records, joined by “and”; a condition that tells them apart may be missing. Equal values may be shown once. Some of the results follow. These are further read-outs of the screen, such as a control signal, another cell line or another target. No call is given for them. The list favours compounds with an active or inconclusive main result. Potencies come from curve fits of mixed quality, noted in brackets.
# Assay: qHTS Assay for Modulators of Lamin A Splicing
# Settings: HeLa LMNA splicing GFP/RFP minigene ratio, 48 h
# Procedure, shortened: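 S3 HeLa stable clones carrying a lamin A-EGFP splicing minigene plus DsRed2 were seeded at 600 cells/well in Opti-MEM with 2% FBS, pin-dosed and incubated 48 h at 37°C. Acumen cytometry (488 nm) gave the GFP/RFP total-intensity ratio.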
# [1] = measured here: GFP splicing reporter channel
# [2] = measured here: RFP viability control channel
SMILES,AC50 [1],AC50 [2]
CCN(CC)CC#CCC(OC)(c1ccccc1)c1ccccc1,"25.1 µM [falling, single point]","0.01 µM [falling, full curve, poor fit]"
Nc1nc(N)c2nc(-c3ccccc3)c(N)nc2n1,"14.1 µM [falling, single point] and 1.26 µM [falling, single point]","14.1 µM [falling, single point] and 3.55 µM [rising, partial curve, poor fit] and 44.7 nM [rising, full curve]"
N=C(N)SCc1nc2ccccc2c(=O)n1-c1ccccc1Cl,"14.1 µM [falling, single point]","14.1 µM [falling, partial curve, poor fit]"
O=C(COc1ccccc1)NC(=S)Nc1ccc2c(c1)Cc1ccccc1-2,"0.126 µM [rising, full curve, poor fit]","0.112 µM [rising, full curve, poor fit]"
Cc1[nH]n(-c2ncc(-c3ccccc3)s2)c(=O)c1C(c1ccc(Cl)cc1)C(C#N)C#N (stereo not given),,"10 µM [rising, partial curve, poor fit]"
Cc1cc(=O)oc2cc(OCC(=O)N3c4ccccc4CC3C)ccc12 (stereo not given),,"11.2 µM [rising, partial curve]"
C=CCNC(=O)c1onc(CCl)c1C(=O)OC,,"35.5 µM [rising, single point]"
CCS(=O)(=O)N1CCC(c2nc(-c3ccc(C(F)(F)F)cc3)no2)CC1,,"7.08 µM [rising, partial curve]"
CN(C)N=Nc1ccc(S(N)(=O)=O)cc1,,"0.02 µM [falling, full curve, poor fit]"
O=C(Nc1ccc2nc(SCc3ccccc3)sc2c1)c1ccccc1F,,"3.16 µM [rising, single point]"
Cc1c(C=O)c2ccccn2c1C(=O)c1ccc(Cl)c([N+](=O)[O-])c1,,"35.5 µM [rising, single point]"
COc1cc(C(=O)Nc2ccc(S(=O)(=O)N(C)c3ccccc3)cc2)cc(OC)c1OC,"15.8 µM [rising, partial curve]","10 µM [rising, partial curve]"
COc1ccc(Cl)cc1NC(=O)Cn1nc(-c2ccc(C)cc2)n(C)c1=S,"15.8 µM [rising, single point]",
Cc1onc(-c2c(F)cccc2Cl)c1C(=O)N1CCCc2ccccc21,,"12.6 µM [rising, single point]"
CCOc1ccc(C(=O)N/N=C/c2cccc3cccnc23)cc1,"20 µM [falling, single point]","31.6 µM [falling, single point]"
COc1cccc(O)c1O,"7.94 µM [falling, partial curve]","3.16 µM [falling, partial curve]"
Nc1nc(NCCCN2CCOCC2)nc(NCc2ccccc2)c1[N+](=O)[O-],,"20 µM [falling, partial curve, poor fit]"
COc1ccccc1CNc1nc(-c2ccc(N(C)C)cc2)nc2ccccc12,"25.1 µM [falling, single point]","35.5 µM [falling, single point]"
Cn1c(=O)cc(OCC(=O)NCCCN2CCN(c3cccc(Cl)c3)CC2)c2ccccc21,,"14.1 µM [rising, single point]"
N#Cc1cccc(-c2cn(S(=O)(=O)c3ccc(Cl)cc3)nc2N)c1,,"12.6 µM [rising, partial curve]"
CCC(=O)Nc1c(C)n[nH]c1C,,"25.1 µM [falling, partial curve, poor fit]"
O=CCCCC=O,"1 µM [falling, single point]","0.00562 µM [rising, full curve, poor fit]"
CCN(CC)C(=O)CSc1nnc(-c2cc3ccccc3cc2O)n1CC,"0.316 µM [falling, full curve, poor fit]","0.447 µM [falling, partial curve, poor fit]"
O=C(NC(=S)NNC(=O)c1ccccc1O)c1ccco1,,"15.8 µM [rising, partial curve]"
Cc1cccc(C)c1NC(=O)CSc1nc(C)c(CC(=O)c2ccc(Br)cc2)c(C)c1C#N,"1.58 µM [falling, partial curve]","1.41 µM [falling, full curve]"
CC12CCC(c3nnc(SCc4ccc(Cl)cc4)nc31)C2(C)C (stereo not given),"35.5 µM [rising, single point]","35.5 µM [rising, single point]"
Cc1cc(NC(=O)CSc2ncn[nH]2)no1,,"0.158 µM [falling, full curve, poor fit]"

# Reprinted from above for reference:
SMILES,AC50 [1],AC50 [2]
COc1cccc(O)c1O,"7.94 µM [falling, partial curve]","3.16 µM [falling, partial curve]"
Nc1nc(NCCCN2CCOCC2)nc(NCc2ccccc2)c1[N+](=O)[O-],,"20 µM [falling, partial curve, poor fit]"
COc1ccccc1CNc1nc(-c2ccc(N(C)C)cc2)nc2ccccc12,"25.1 µM [falling, single point]","35.5 µM [falling, single point]"

# Later entries.

SMILES,AC50 [1],AC50 [2]
CCN1C(=O)/C(=C/c2ccc(C)s2)SC1=Nc1ccc(OC)cc1,"12.6 µM [falling, single point]",
CC(=O)Nc1cccc(Oc2ncnc3scc(-c4ccc(C)cc4)c23)c1,,"10 µM [rising, partial curve, poor fit]"
CSC1=NCCN1C(=O)c1ccc(C)cc1,"11.2 µM [rising, partial curve]",
Cc1ccccc1N/C(SCc1ccc(Cl)cc1)=C(/C#N)C(=O)NCc1ccco1,"17.8 µM [rising, partial curve, poor fit]","20 µM [rising, single point]"
COc1cc(CO)ccc1OCc1nnnn1-c1ccc(C)cc1,"1 µM [rising, full curve, poor fit]",
Cc1cc(C)n(CC(O)CN2c3ccccc3Sc3ccccc32)n1 (stereo not given),"11.2 µM [rising, partial curve, poor fit]",
Cc1cccc(Nc2nc(N)c(C#N)c(CC#N)c2C#N)c1,"0.891 µM [rising, partial curve]",
CC(=O)c1ccc(OCC(O)CN(C)Cc2cccs2)cc1 (stereo not given),"11.2 µM [rising, partial curve, poor fit]","11.2 µM [rising, partial curve, poor fit]"
COc1ccc(CC(=O)NCc2nc3cccnc3n2Cc2ccc(C)cc2)cc1,,"35.5 µM [falling, single point]"
O=C(Nc1ccc2c(c1)nc1n2CCCCC1)c1cc(S(=O)(=O)N2CCOCC2)ccc1Cl,"3.55 µM [rising, single point]","7.08 µM [rising, full curve]"
COC(=O)c1ccc(NC(=O)C(=O)NCCc2sc(-c3cccc(F)c3)nc2C)cc1,"12.6 µM [falling, partial curve, poor fit]","22.4 µM [falling, single point]"
Brc1cc(/C=N/n2cnnc2)oc1Br,"1.78 µM [rising, partial curve, poor fit]","2.82 µM [rising, partial curve, poor fit]"
CCOC(=O)c1ccc(NC(=O)CCc2nc(-c3ccccc3Cl)no2)cc1,,"10 µM [rising, single point]"
CC(=O)c1ccc(NC(=O)C2CCCN(S(=O)(=O)c3ccc4c(c3)CCCN4C(C)=O)C2)cc1 (stereo not given),"0.02 µM [falling, full curve, poor fit]",
Cc1nn2cc(-c3cccc(Cl)c3)cnc2c1Br,"0.00355 µM [falling, full curve, poor fit]","2.24 µM [falling, partial curve, poor fit]"
CC(NC(c1ccccc1)c1ccccc1)C(=O)N1CCCc2ccccc21 (stereo not given),"1.58 µM [rising, full curve, poor fit]","14.1 µM [rising, partial curve]"
CCCCn1c(=O)c(C(=O)OCC)c(O)c2ccccc21,,"0.00355 µM [falling, full curve, poor fit]"
COc1cccc(OC(C)c2ccnc3nc(/N=C/N(C)C)nn23)c1 (stereo not given),"25.1 µM [rising, single point]",
CCOC(=O)C1=C(CNCCc2ccc(Cl)cc2)NC(=O)NC1c1cccc([N+](=O)[O-])c1 (stereo not given),"0.141 µM [rising, full curve, poor fit]",
O=C(CSc1ncccn1)N/N=C/c1ccccc1[N+](=O)[O-],,"0.00398 µM [falling, full curve, poor fit]"
CCCCN(C(=O)CSc1cc(C)c2ccc(OC)cc2n1)c1c(N)n(Cc2ccccc2)c(=O)[nH]c1=O,,"35.5 µM [rising, single point]"
COc1ccccc1-c1nnc(SCC(=O)NC2CCCCC2)o1,,"0.282 µM [rising, full curve]"
Cc1cccc(-c2cc(NC(=O)C(C)(C)C)n(-c3ccccc3)n2)c1,,"25.1 µM [rising, single point]"
O=C(Nc1nc2ccccc2n1CCOc1ccc(Cl)cc1)c1ccco1,,"12.6 µM [rising, single point]"
CCCCOc1ccc(C(=O)CCN2CCCCC2)cc1,"282 nM [falling, full curve, poor fit] and 20 µM [rising, partial curve, poor fit]","0.631 µM [falling, full curve]"
Cc1nc2nc(SCc3ccc(F)cc3Cl)nn2c(C)c1Cc1ccccc1,"35.5 µM [falling, single point]","35.5 µM [falling, partial curve]"
O=C(Cn1cnc2ccccc2c1=O)N1CCOCC1,"0.447 µM [rising, full curve, poor fit]",

# Reference: PubChem BioAssay AID1487 (National Center for Advancing Translational Sciences (NCATS), 2009)
